From patent US20230265212A1 (OVERA, published 2023)

Assays:
[1] = target: Macaca nemestrina SAS1B on oocytes of ovarian cortex (Macaca nemestrina); experiment: immunohistochemistry on Macaca nemestrina ovary
[2] = target: Macaca nemestrina SAS1B on oocytes of ovarian cortex (Macaca nemestrina); experiment: immunohistochemistry on FFPE Macaca nemestrina ovarian cortex

B1: monoclonal antibody OV119 (antibody, V domains shown)
VH: EVQLQESGPELVKPGASVKISCKTSGYTFTEYPMHWVKQSHGKSLEWIGGINPNNGDTTYNQRFKGKATLTVDKSSGTAYMELRSLTSEDSAVYYCVPNFDWFAYWGQGTLVTVSP
VL: DVLMTQSPLSLPVSLGDQASISCRSSQSIVHSYGNTYLEWYLQKPGQSPKLLIYKVSNRFSGVPDRFSGSGSGTDFTLRISRVEAEDLGIYYCFQGSHLPFTFGGGTKLEIK
notes: Mouse hybridoma monoclonal IgG; also called naked OV119 (unconjugated)
- binding [1]: binds
- binding [2]: binds

B2: monoclonal antibody OV115 (antibody, V domains shown)
VH: DVQLQESGPGLVKPSQSLSLTCTVTGYSLTSDYAWNWIRQFPGKKVEWMGYLSYSGRTSYNPSLKSRISITRDTSRNQFFLQLNSVTTEDTATYYCARMGGNFGFDYWGQGTTLTVST
VL: GIVMTQAPLSLPVSLGDQASISCRSSQSLVHINGSTYLHWYLQKPGQSPNLLIYKVSYRFSGVPDRFSGSGSGTDFTLKITRVEAEDLGVYFCSQSTHVPLTFGSGTKLEIK
- binding [2]: binds

Results are given in words; binding and its absence hold for the method and conditions named. Binding calls can cover weak binding; strength is not graded here.
